# Results taken from the supplement of paper PMC4604168 (melanoma cell lines).
# This is one part of the list. Many values rest on one well or one pass, so single values are uncertain.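 The apoptosis fraction was the count of cleaved-PARP antibody-stained nuclei relative to all DNA-stained nuclei, imaged in 1,536-well plates. Screening doses were set so most cells survived, and baseline and induced cleaved-PARP levels vary greatly across cell lines.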
# System: SkMel30
# Experiment: cleaved PARP positive nuclei fraction relative to DMSO control; melanoma cells; higher = more apoptosis
# Settings: library dose: low library concentration; 72 h
row,Structure (SMILES),cleaved PARP positive nuclei fraction
1,"Cc1cn(-c2cc(NC(=O)c3ccc(C)c(Nc4nccc(-c5cccnc5)n4)c3)cc(C(F)(F)F)c2)cn1 [nilotinib] + Nc1nc(F)nc2c1ncn2[C@@H]1O[C@H](CO)[C@@H](O)[C@@H]1O [fludarabine] (first compound 0.2 µM, partner dose 0.2 µM)",427%
2,"O=c1[nH]nc(Sc2ncc([N+](=O)[O-])s2)n1-c1ccc2c(c1)OCCO2 + CO[C@H]1C[C@@H]2CC[C@@H](C)[C@@](O)(O2)C(=O)C(=O)N2CCCC[C@H]2C(=O)O[C@H]([C@H](C)C[C@@H]2CC[C@@H](OCCO)[C@H](OC)C2)CC(=O)[C@H](C)/C=C(\C)[C@@H](O)[C@@H](OC)C(=O)[C@H](C)C[C@H](C)/C=C/C=C/C=C/1C [everolimus] (first compound 0.2 µM, partner dose 0.02 µM)",117%
3,"O=c1[nH]nc(Sc2ncc([N+](=O)[O-])s2)n1-c1ccc2c(c1)OCCO2 + Cn1nnc2c(C(N)=O)ncn2c1=O [temozolomide] (first compound 0.2 µM, partner dose 2 µM)",139%
4,"Cc1cc(Nc2cc(N3CCN(C)CC3)nc(Sc3ccc(NC(=O)C4CC4)cc3)n2)n[nH]1 [Tozasertib] + C[C@@H](Oc1cc(-c2cnn(C3CCNCC3)c2)cnc1N)c1c(Cl)ccc(F)c1Cl [Crizotinib] (first compound 0.006 µM, partner dose 0.2 µM)",39.3%
5,"O=c1[nH]nc(Sc2ncc([N+](=O)[O-])s2)n1-c1ccc2c(c1)OCCO2 + NC(=O)c1ccc(N(C(N)=O)c2c(F)cccc2F)nc1-c1ccc(F)cc1F [VX702] (first compound 0.2 µM, partner dose 0.4 µM)",96.2%
6,"Cc1ccc(Nc2nccc(N(C)c3ccc4c(C)n(C)nc4c3)n2)cc1S(N)(=O)=O [Pazopanib] + CO[C@H]1C[C@@H]2CC[C@@H](C)[C@@](O)(O2)C(=O)C(=O)N2CCCC[C@H]2C(=O)O[C@H]([C@H](C)C[C@@H]2CC[C@@H](OCCO)[C@H](OC)C2)CC(=O)[C@H](C)/C=C(\C)[C@@H](O)[C@@H](OC)C(=O)[C@H](C)C[C@H](C)/C=C/C=C/C=C/1C [everolimus] (first compound 0.4 µM, partner dose 0.02 µM)",112%
7,"Cc1ccc(Nc2nccc(N(C)c3ccc4c(C)n(C)nc4c3)n2)cc1S(N)(=O)=O [Pazopanib] + CCCS(=O)(=O)Nc1ccc(F)c(C(=O)c2c[nH]c3ncc(Cl)cc23)c1F [PLX4720] (first compound 0.4 µM, partner dose 0.08 µM)",67.1%
8,"N#CC[C@H](C1CCCC1)n1cc(-c2ncnc3[nH]ccc23)cn1 [ruxolitinib] + OCc1c[nH]c2ccccc12 [Indole-3-carbinol] (first compound 1 µM, partner dose 0.8 µM)",115%
9,"Cc1ccc(Nc2nccc(N(C)c3ccc4c(C)n(C)nc4c3)n2)cc1S(N)(=O)=O [Pazopanib] + OCc1c[nH]c2ccccc12 [Indole-3-carbinol] (first compound 0.4 µM, partner dose 0.8 µM)",44.5%
10,"COc1cc([C@@H]2c3cc4c(cc3[C@@H](O[C@@H]3O[C@@H]5CO[C@@H](C)O[C@H]5[C@H](O)[C@H]3O)[C@H]3COC(=O)[C@H]23)OCO4)cc(OC)c1O [etoposide] + C[C@]1(O)C[C@@H](c2nc(-c3ccc4ccc(-c5ccccc5)nc4c3)c3c(N)nccn32)C1 [OSI906] (first compound 0.02 µM, partner dose 0.4 µM)",54.3%
11,"N#CC[C@H](C1CCCC1)n1cc(-c2ncnc3[nH]ccc23)cn1 [ruxolitinib] + CO[C@H]1C[C@@H]2CC[C@@H](C)[C@@](O)(O2)C(=O)C(=O)N2CCCC[C@H]2C(=O)O[C@H]([C@H](C)C[C@@H]2CC[C@@H](OCCO)[C@H](OC)C2)CC(=O)[C@H](C)/C=C(\C)[C@@H](O)[C@@H](OC)C(=O)[C@H](C)C[C@H](C)/C=C/C=C/C=C/1C [everolimus] (first compound 1 µM, partner dose 0.02 µM)",54.9%
12,"Cc1ccc(Nc2nccc(N(C)c3ccc4c(C)n(C)nc4c3)n2)cc1S(N)(=O)=O [Pazopanib] + Cn1nnc2c(C(N)=O)ncn2c1=O [temozolomide] (first compound 0.4 µM, partner dose 2 µM)",107%

# Records 5 through 6, quoted:
row,Structure (SMILES),cleaved PARP positive nuclei fraction
5,"O=c1[nH]nc(Sc2ncc([N+](=O)[O-])s2)n1-c1ccc2c(c1)OCCO2 + NC(=O)c1ccc(N(C(N)=O)c2c(F)cccc2F)nc1-c1ccc(F)cc1F [VX702] (first compound 0.2 µM, partner dose 0.4 µM)",96.2%
6,"Cc1ccc(Nc2nccc(N(C)c3ccc4c(C)n(C)nc4c3)n2)cc1S(N)(=O)=O [Pazopanib] + CO[C@H]1C[C@@H]2CC[C@@H](C)[C@@](O)(O2)C(=O)C(=O)N2CCCC[C@H]2C(=O)O[C@H]([C@H](C)C[C@@H]2CC[C@@H](OCCO)[C@H](OC)C2)CC(=O)[C@H](C)/C=C(\C)[C@@H](O)[C@@H](OC)C(=O)[C@H](C)C[C@H](C)/C=C/C=C/C=C/1C [everolimus] (first compound 0.4 µM, partner dose 0.02 µM)",112%
